# Source: the supplement of paper PMC12889115
# The other results are listed elsewhere or left out. Values are raw readings; no control value is given beside them.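 In the initial screen, polymyxin B was used at a concentration that permeabilizes Salmonella's outer membrane but not its inner membrane. Maximum growth was set by DMSO wells with or without polymyxin B. Since plates varied, data were ranked per plate, and compounds giving the lowest OD600 advanced as hits.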
# Test system: Salmonella enterica serovar Typhimurium SL1344
# Test: bacterial growth OD600 after 18 h with compound and polymyxin B; higher = more bacterial growth (less inhibition)
# Conditions: 50 µM, Mueller-Hinton broth
Compound,bacterial growth OD600 (polymyxin B 1 µg/mL),bacterial growth OD600 (polymyxin B 0.75 µg/mL)
C=CCC(=O)N1CCCC(Cc2ccccc2F)(C(=O)OCC)C1 (configuration not stated),0.869,
CCC1CN(CCNC(=O)CSC)Cc2cc(OC)ccc2O1 (configuration not stated),,0.835
COc1ccc(CCC(=O)N2CCc3c(cnc(C)c3CNC(=O)c3ccc(C)s3)C2)cc1OC,,0.78
CN(Cc1cnn(-c2ccc(F)cc2)c1)Cc1nc(-c2ccc3c(c2)OCO3)no1,1.05,
COc1cccc(C(=O)NCC2CCCN(C/C(C)=C/c3ccccc3)C2)c1OC (configuration not stated),1.17,
COc1ccc(CCN2CCCC(CN(C)C(=O)c3cc(F)cc(F)c3)C2)cc1 (configuration not stated),,0.803
CC(NC(=O)c1ccc(OC2CCN(S(C)(=O)=O)CC2)c(Cl)c1)c1ccccc1 (configuration not stated),0.904,
Cc1nc2cc(OCc3nc(C(=O)N(C)C)co3)ccc2s1,0.924,
Clc1ccccc1Cc1noc(CN2CCCCC2c2ccccn2)n1 (configuration not stated),0.786,
COc1ccc(F)c(CN2CC[C@@H](N(C)CCc3ccccn3)[C@H](O)C2)c1,1.15,
COC(=O)CCC(=O)NC1CC(C)(C)Cc2c1cnn2-c1ccc(C)cc1 (configuration not stated),0.853,
CCC(=O)N[C@@H]1c2ccccc2C2(CCN(Cc3cc(OC)ccc3OC)CC2)[C@H]1OCCOC,,0.843
CCN1CCN(C2(C(=O)N(C)Cc3nc(C)cs3)Cc3ccccc3C2)CC1,,0.384
O=C(CCC1CCCN(Cc2cc3c(cc2Cl)OCO3)C1)Nc1ccccc1F (configuration not stated),0.922,
CCC(=O)NC1CC(=O)N(CCc2ccc(OC)cc2)C1 (configuration not stated),0.918,
CC(=O)NCC(=O)N1CCC(C2CCN(Cc3cccc(F)c3F)CC2)C1 (configuration not stated),,0.839

Compound,bacterial growth OD600 (polymyxin B 1 µg/mL),bacterial growth OD600 (polymyxin B 0.75 µg/mL)
Cc1ccc(Cl)cc1N1CCN(Cc2nc(-c3ccccn3)no2)CC1,0.591,
CC(=O)Nc1ccc(CN2Cc3cc(Cl)ccc3OC(C)C2)s1 (configuration not stated),,0.329
CCOc1ccccc1CN1CCC(O)(Cc2cc(-c3ccccc3)no2)CC1,0.895,
CC(C)C(O)C1CCN(C(=O)c2csc3nc(-c4ccc(F)cc4)cn23)CC1 (configuration not stated),0.98,
COCCn1cnc2cc(NC(=O)C3CCCCC3)cc(C(=O)N3CCc4sccc4C3)c21,,0.721
COc1cc(C2CCN(CC3CC3)c3ccccc3S2)cc(OC)c1OC (configuration not stated),,0.745
Cc1cc(F)ccc1NC(=O)CCC1CCCN(C(=O)c2coc3c2C(=O)CCC3)C1 (configuration not stated),0.932,
CN1C(=O)CC(CC(=O)N2CCC(Oc3cccnc3)CC2)(c2ccc(-c3ccccc3)cc2)C1=O (configuration not stated),,0.002
COCCC(=O)NCc1ccc2[nH]c(-c3ccc(F)cc3)c(C)c2c1,0.81,
CCn1cc(CN2CCC(C(=O)Nc3ccc(Oc4cccnc4)cc3)CC2)c(C)n1,0.891,
CC(CNC1CCN(c2ccc(C(=O)NCc3ccc4c(c3)OCO4)cc2)CC1)Oc1cccnc1 (configuration not stated),,0.843
CC(c1nccs1)N(C)C(=O)c1csc2nc(-c3ccccc3Cl)cn12 (configuration not stated),0.148,
CC(C)(C)NC(=O)c1cc(Cl)ccc1OC1CCN(Cc2cccnc2)CC1,1.04,
O=C(NCc1cccnc1Oc1ccccc1)C1CCC1,,0.816
O=C(CCc1cccs1)NC1CCCc2nc(-c3cccnc3)ncc21 (configuration not stated),,0.783
CCN1CCN(C2(C(=O)NC3CCCC3)Cc3ccccc3C2)CC1,,0.734

# Looked up above:
# CCn1cc(CN2CCC(C(=O)Nc3ccc(Oc4cccnc4)cc3)CC2)c(C)n1 – bacterial growth OD600 (polymyxin B 1 µg/mL): 0.891
# C=CCC(=O)N1CCCC(Cc2ccccc2F)(C(=O)OCC)C1 (configuration not stated) – bacterial growth OD600 (polymyxin B 1 µg/mL): 0.869
